The values below come from paper PMC6570425, “Regulation of GLI1 by cis DNA elements and epigenetic marks”.

Protein sequences, listed by entry. Tags and fused reporters are not part of them.
UniProt P08151: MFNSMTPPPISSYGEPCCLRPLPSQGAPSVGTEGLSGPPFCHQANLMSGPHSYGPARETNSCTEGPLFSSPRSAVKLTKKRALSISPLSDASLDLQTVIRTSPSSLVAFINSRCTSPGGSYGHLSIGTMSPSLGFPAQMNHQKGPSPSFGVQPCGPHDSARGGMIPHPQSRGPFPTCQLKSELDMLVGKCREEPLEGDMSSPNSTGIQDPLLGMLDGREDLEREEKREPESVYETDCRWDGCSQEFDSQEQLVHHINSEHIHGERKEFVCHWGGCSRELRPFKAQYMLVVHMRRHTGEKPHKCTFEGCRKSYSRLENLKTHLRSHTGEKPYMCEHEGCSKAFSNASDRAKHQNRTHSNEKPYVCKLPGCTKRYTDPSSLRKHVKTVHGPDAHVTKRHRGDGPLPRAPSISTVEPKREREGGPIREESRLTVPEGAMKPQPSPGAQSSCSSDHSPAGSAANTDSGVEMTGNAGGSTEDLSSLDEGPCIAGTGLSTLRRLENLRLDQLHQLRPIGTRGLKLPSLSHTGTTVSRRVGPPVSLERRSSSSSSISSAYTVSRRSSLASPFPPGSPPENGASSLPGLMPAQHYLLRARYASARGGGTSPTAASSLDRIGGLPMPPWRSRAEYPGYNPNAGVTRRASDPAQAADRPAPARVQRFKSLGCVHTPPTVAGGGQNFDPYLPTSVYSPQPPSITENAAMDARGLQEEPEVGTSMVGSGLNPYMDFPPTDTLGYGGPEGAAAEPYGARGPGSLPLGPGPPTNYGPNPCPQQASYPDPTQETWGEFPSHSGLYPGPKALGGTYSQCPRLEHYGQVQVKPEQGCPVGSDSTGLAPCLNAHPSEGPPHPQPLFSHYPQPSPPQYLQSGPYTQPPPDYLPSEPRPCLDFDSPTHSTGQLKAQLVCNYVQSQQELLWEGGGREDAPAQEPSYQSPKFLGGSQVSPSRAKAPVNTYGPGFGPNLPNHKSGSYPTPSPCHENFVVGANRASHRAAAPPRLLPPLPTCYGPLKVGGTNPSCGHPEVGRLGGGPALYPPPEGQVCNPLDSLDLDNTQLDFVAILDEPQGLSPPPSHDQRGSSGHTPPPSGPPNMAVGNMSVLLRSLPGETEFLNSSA

Results are given in words; binding and its absence hold for the method and conditions named. Binding seen in cells or lysates may run through a third protein. These calls come from enrichment with a bait or labelling near it, and not all partners need be listed. Tags and fused reporters may be left off the sequences shown.

In the assay the target is GLI1-GFP fusion protein (UniProt P08151). Put plainly: affinity purification with mass spectrometry; HeLa cells transfected with GFP-GLI1 or GFP alone; lysis in modified RIPA (400 mM NaCl, 1% NP-40); GFP-Trap beads overnight at 4 °C; washes with 150 mM NaCl, 0.1% NP-40; SDS-PAGE, LC-MS/MS with LFQ; two independent isolations.

B1: SUV39H1, a histone methyltransferase (enzyme, UniProt O43463 1-412)
chain: MAENLKGCSVCCKSSWNQLQDLCRLAKLSCPALGISKRNLYDFEVEYLCDYKKIREQEYYLVKWRGYPDSESTWEPRQNLKCVRILKQFHKDLERELLRRHHRSKTPRHLDPSLANYLVQKAKQRRALRRWEQELNAKRSHLGRITVENEVDLDGPPRAFVYINEYRVGEGITLNQVAVGCECQDCLWAPTGGCCPGASLHKFAYNDQGQVRLRAGLPIYECNSRCRCGYDCPNRVVQKGIRYDLCIFRTDDGRGWGVRTLEKIRKNSFVMEYVGEIITSEEAERRGQIYDRQGATYLFDLDYVEDVYTVDAAYYGNISHFVNHSCDPNLQVYNVFIDNLDERLPRIAFFATRTIRAGEELTFDYNMQVDPVDMESTRMDSNFGLAGLPGSPKKRVRIECKCGTESCRKYLF
B1: the binding entry is reported as “binds”.
